Data on one substance can be found in doi:10.1101/2021.06.17.448908.

Protein sequences, listed by entry. Tags and fused reporters are not part of them. Lines headed by an entry give the natural chain unless they say otherwise; changes in a name come on top.
UniProt Q03347: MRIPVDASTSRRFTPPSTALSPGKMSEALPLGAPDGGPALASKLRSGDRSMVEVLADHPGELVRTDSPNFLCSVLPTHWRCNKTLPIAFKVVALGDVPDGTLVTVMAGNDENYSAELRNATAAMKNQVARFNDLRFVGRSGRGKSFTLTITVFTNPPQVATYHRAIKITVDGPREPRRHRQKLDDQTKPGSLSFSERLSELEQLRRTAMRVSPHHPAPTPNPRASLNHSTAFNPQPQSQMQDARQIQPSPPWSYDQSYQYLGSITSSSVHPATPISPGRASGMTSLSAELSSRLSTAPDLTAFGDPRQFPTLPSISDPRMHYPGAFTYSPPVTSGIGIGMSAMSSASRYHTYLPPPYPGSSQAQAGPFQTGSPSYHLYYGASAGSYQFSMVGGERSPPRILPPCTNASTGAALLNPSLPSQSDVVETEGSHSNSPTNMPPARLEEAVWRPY
UniProt Q08775: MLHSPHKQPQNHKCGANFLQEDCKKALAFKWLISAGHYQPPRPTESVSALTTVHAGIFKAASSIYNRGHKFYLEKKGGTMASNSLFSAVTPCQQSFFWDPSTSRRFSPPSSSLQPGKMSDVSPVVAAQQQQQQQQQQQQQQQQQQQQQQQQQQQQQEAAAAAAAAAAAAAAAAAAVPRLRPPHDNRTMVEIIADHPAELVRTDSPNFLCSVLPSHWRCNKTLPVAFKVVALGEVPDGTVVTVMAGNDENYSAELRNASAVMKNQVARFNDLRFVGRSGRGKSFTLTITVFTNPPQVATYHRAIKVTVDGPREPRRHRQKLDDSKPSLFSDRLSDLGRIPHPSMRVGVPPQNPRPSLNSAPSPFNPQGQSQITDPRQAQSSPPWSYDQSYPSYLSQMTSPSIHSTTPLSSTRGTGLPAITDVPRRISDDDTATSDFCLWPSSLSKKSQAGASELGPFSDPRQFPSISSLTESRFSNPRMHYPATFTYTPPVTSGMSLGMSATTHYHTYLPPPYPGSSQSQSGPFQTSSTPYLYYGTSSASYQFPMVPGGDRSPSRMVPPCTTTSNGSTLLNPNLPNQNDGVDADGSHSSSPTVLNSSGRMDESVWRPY
UniProt P45448: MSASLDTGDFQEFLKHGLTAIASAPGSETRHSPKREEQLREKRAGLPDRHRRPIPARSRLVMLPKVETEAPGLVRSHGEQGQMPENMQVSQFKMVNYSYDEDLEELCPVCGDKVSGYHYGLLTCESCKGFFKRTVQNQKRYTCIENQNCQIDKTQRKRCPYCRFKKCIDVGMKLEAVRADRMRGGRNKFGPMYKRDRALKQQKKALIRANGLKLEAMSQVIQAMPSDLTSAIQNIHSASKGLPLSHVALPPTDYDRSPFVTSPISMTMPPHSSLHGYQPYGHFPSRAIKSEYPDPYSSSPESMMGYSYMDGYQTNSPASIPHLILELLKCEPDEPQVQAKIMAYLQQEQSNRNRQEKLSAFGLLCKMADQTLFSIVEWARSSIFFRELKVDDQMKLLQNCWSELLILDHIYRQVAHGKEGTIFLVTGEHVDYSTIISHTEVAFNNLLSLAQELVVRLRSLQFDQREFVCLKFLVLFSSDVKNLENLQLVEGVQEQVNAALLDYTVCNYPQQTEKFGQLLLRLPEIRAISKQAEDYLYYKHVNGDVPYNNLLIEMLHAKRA
UniProt Q00175: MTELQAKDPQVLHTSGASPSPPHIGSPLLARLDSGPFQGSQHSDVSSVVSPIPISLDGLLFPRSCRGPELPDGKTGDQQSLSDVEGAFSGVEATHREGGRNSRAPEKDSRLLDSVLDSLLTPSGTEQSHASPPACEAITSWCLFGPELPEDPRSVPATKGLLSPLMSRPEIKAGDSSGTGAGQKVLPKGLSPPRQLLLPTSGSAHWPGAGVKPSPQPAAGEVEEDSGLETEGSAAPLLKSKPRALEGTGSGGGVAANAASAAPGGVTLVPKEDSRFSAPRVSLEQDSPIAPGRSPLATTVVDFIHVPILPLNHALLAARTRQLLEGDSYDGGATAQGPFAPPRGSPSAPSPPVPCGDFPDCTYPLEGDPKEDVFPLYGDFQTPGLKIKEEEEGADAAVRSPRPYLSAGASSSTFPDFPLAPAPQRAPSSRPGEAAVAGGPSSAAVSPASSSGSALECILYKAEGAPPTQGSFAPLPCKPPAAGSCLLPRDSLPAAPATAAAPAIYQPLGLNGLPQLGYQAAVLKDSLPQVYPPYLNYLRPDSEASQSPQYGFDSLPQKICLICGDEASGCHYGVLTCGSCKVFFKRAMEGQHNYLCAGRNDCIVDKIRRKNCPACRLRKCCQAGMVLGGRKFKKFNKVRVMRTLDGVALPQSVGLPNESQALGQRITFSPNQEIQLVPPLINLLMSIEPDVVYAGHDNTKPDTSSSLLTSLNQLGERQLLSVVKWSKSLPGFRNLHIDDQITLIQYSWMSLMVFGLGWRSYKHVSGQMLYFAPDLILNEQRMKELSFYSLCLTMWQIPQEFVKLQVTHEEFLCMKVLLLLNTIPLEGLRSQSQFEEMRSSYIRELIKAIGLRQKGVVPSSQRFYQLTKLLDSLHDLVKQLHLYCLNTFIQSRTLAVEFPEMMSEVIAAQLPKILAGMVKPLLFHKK

These are yes or no findings as the source states them, for the method shown. In cells and extracts the contact can be indirect. A result given as binding can be weak or reduced; the word gives no strength.

Holding throughout (test): proximity ligation
Assay [1] concerns the target T1, JUND (mouse (endogenous in granulosa cells)) (UniProt P15066).
T1 sequence: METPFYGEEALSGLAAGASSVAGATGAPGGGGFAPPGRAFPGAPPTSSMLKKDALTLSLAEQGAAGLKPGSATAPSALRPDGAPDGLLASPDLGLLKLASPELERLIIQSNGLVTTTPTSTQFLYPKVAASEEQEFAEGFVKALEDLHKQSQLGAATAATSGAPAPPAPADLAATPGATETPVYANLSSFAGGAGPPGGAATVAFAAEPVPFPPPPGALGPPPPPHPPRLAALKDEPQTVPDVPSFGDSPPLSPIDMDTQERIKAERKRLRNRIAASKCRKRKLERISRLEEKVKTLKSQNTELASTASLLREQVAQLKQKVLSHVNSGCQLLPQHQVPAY

For assay [2], the target named is RUNX1 (mouse (endogenous in granulosa cells)) (UniProt Q03347).
Assay [3] deals with RUNX2 (mouse (endogenous in granulosa cells)) (UniProt Q08775).
Assay [4] has as its target NR5A2 (LRH1) (mouse (endogenous in granulosa cells)) (UniProt P45448).

For the substance “Progesterone receptor (PGR) (from UniProt Q00175)”, the binding entry in assay [1] is given as “binds”; in assay [2] it was “binds”; in assay [3] it was “binds”; in assay [4], “binds weakly”.
